According to patent publication US10442791B2, “DNA-PK inhibitors” (Vertex Pharmaceuticals Incorporated, priority 2012, dated 2019):
pKi: −log10 of the molar value. Some results were stated once for a whole list of compounds, not compound by compound.

Amino acid sequences for entries named in this document (tags omitted).
UniProt P78527, whole entry: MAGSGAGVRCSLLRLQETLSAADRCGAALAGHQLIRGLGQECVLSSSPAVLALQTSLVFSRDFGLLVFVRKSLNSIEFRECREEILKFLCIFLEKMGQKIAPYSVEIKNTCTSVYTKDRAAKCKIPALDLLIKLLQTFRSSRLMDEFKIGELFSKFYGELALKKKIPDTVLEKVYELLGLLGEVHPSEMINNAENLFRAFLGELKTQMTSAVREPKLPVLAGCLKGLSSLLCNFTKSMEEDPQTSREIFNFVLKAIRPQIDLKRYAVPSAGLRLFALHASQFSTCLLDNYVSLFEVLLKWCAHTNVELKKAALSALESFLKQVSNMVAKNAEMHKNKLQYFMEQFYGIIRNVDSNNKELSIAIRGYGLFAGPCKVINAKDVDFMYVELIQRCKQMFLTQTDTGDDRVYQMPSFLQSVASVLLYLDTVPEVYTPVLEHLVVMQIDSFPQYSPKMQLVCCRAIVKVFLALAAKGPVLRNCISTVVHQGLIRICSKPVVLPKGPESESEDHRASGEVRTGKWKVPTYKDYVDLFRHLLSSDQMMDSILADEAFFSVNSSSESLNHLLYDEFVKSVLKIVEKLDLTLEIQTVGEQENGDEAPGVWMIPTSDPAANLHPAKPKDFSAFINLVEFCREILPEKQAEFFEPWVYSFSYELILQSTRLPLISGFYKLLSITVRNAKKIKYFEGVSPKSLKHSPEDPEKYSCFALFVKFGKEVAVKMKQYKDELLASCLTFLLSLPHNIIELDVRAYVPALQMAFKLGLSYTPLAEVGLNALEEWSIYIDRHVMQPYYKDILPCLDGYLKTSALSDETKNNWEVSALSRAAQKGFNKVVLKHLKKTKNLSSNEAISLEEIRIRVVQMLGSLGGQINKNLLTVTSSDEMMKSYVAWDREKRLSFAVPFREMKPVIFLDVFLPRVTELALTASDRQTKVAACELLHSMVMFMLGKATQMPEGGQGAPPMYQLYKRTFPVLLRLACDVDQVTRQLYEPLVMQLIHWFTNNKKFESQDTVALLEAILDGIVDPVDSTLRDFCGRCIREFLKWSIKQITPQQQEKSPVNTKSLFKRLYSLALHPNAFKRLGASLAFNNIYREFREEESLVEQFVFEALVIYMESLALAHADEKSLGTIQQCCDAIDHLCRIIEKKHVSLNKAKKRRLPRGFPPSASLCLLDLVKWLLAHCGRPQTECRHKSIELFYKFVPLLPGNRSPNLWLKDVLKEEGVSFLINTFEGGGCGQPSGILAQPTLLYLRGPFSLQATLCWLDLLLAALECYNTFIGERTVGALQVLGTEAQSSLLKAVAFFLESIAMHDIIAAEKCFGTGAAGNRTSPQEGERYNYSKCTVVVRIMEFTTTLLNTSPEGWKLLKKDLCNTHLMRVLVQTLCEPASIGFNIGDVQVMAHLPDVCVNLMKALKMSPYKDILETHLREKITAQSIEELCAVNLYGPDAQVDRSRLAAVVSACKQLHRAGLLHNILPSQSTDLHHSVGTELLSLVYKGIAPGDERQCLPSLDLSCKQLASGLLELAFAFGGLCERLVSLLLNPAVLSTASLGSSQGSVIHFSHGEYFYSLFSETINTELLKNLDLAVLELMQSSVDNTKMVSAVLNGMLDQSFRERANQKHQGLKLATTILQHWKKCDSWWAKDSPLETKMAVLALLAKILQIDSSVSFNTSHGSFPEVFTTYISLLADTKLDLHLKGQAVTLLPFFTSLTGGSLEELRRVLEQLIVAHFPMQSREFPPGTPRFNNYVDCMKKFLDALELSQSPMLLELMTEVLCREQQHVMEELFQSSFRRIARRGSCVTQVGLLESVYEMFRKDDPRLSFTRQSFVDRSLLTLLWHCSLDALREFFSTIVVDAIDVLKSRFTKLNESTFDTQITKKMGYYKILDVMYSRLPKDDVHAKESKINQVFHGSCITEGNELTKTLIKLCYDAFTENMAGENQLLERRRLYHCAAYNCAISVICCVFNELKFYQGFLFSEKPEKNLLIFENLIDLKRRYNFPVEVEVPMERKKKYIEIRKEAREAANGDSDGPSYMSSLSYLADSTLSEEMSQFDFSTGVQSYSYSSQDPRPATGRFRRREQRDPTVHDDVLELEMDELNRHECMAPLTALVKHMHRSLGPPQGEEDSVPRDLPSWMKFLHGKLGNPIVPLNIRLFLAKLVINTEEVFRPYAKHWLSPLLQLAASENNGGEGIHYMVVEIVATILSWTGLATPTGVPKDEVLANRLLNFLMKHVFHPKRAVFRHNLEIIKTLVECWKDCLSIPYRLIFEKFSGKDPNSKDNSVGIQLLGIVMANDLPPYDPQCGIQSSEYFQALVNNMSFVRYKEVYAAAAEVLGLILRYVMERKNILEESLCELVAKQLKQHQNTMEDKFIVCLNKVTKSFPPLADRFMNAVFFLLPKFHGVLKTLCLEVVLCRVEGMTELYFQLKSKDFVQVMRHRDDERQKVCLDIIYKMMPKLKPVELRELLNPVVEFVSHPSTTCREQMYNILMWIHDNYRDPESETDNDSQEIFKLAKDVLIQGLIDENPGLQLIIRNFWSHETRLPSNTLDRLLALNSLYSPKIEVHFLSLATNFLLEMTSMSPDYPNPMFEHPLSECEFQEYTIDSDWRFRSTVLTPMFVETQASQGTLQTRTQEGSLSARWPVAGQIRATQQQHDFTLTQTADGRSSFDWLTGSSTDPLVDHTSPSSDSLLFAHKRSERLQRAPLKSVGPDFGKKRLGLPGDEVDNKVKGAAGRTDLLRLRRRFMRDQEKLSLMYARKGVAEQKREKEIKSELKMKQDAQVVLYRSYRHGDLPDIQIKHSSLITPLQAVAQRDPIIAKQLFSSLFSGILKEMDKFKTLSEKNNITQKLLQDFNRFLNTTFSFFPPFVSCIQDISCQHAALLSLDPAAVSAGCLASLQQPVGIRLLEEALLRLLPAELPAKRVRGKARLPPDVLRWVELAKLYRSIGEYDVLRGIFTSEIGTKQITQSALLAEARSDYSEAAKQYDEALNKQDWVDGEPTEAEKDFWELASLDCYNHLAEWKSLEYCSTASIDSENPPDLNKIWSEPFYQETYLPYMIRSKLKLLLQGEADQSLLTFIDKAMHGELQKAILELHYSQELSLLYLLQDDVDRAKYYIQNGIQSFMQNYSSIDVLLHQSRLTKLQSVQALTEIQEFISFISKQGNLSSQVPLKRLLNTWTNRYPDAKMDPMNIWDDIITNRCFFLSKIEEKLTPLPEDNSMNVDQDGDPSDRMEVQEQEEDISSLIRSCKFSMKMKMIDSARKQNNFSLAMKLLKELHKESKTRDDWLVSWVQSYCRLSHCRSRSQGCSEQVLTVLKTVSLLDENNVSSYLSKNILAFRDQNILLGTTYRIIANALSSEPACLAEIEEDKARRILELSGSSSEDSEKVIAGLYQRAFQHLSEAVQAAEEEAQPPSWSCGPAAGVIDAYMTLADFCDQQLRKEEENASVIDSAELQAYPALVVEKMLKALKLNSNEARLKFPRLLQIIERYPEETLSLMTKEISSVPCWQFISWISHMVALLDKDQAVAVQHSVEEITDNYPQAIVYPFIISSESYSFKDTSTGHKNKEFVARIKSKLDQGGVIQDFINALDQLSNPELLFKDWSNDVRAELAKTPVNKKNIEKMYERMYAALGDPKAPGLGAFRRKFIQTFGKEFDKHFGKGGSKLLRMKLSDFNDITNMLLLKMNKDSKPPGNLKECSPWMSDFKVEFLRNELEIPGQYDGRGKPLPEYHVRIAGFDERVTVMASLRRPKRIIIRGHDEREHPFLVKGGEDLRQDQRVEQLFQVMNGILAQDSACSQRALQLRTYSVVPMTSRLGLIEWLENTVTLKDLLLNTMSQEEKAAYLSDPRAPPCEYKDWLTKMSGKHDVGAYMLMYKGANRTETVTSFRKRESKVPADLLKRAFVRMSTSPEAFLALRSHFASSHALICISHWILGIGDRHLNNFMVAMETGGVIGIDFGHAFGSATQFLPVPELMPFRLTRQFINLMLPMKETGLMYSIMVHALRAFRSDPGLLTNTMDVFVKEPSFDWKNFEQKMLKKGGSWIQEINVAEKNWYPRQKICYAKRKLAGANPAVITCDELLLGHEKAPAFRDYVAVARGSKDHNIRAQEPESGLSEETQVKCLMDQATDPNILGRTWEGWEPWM

Each compound was assayed against DNA-PK (Homo sapiens, UniProt P78527) (assay: DNA-PK inhibition assay (radiometric 33P-ATP kinase assay)). Settings: 100 μM ATP; competitive tight-binding fit.
Type: biochemical

pKi, ≥ 6.52:
COc1cc(-c2cn(C)nc2C)ccc1C(C)CNc1cc(-c2ccc(C)nc2)ncn1 (stereo not shown) [Compound 426]
CCOc1ncc(-c2cc(NC[C@@H](C)c3ccnc4c3OCCO4)ncn2)cc1OC [Compound 552]
Cc1ccc(-c2cc(NCC(C)c3ccccc3OCCCO)ncn2)cn1 (stereo not shown) [Compound 182]
CNC(=O)c1c(F)cnc2c([C@H](C)CNc3cc(-c4cnc(C)c(F)c4)ncn3)cccc12 [Compound 973]
CNC(=O)c1ccnc2c([C@H](C)CNc3cc(-c4cnc(CC5CCN(C)CC5)nc4)ncn3)cccc12 [Compound 1001]
COc1cnc(N)cc1[C@H](C)CNc1cc(-c2ccc(C)nc2)ncn1 [Compound 630]
C[C@H](CNc1cc(-c2cnc(N)c(F)c2)ncn1)c1ccnc2c1OCCO2 [Compound 516]
CCNc1ncc(-c2cc(NC[C@@H](C)c3ccc(F)c4c(C(=O)NC)ccnc34)ncn2)cn1 [Compound 931]
C=C(CNc1cc(-c2ccc(C)nc2)ncn1)c1ccc(C(=O)NC)cc1OC [Compound 463]
CNC(=O)c1ccnc2c([C@H](C)CNc3cc(-c4cnc(N5CCC(O)CC5)nc4)ncn3)cccc12 [Compound 729]
[2H]c1nc(C)nc([2H])c1-c1cc(NC[C@@H](C)c2ccc(F)c3c(C(=O)NC)ccnc23)ncn1 [Compound 861]
CNC(=O)c1ccnc2c([C@H](C)CNc3cc(-c4ccc(OC)cc4)ncn3)cccc12 [Compound 682]
CCN(C)c1ccc(-c2cc(NC[C@@H](C)c3ccc(C(=O)NC)cc3OC)ncn2)cn1 [Compound 362]
COc1cc(-c2nnc(C)o2)ccc1C(C)CNc1cc(-c2ccc(C)nc2)ncn1 (stereo not shown) [Compound 337]
CNC(=O)c1ccnc2c([C@H](C)CNc3cc(-c4ccnn4C)ncn3)cccc12 [Compound 760]
CNC(=O)c1ccnc2c([C@H](C)CNc3cc(-c4cnc5c(c4)COC5)ncn3)cccc12 [Compound 952]
CNC(=O)c1ccnc2c([C@H](C)CNc3cc(-c4ccc(C#N)nc4)ncn3)cccc12 [Compound 613]
Cc1ncc(-c2cc(NC[C@@H](C)c3cccc4c(C(F)(F)F)ccnc34)ncn2)cn1 [Compound 687]
CNC(=O)c1ccc(C(C)CNc2cc(-c3ccc(C)nc3)ncn2)c(OC)c1 (stereo not shown) [Compound 123]
COc1cc(C=O)ccc1C(C)CNc1cc(-c2ccc(C)nc2)ncn1 (stereo not shown) [Compound 378]
CNC(=O)N1CCOc2c([C@H](C)CNc3cc(-c4cnc(C)nc4)ncn3)cccc21 [Compound 699]
CNC(=O)c1c(F)cnc2c([C@H](C)CNc3cc(-c4cnc(C)nc4)ncn3)cccc12 [Compound 636]
CNC(=O)c1ccc(C(C)CNc2cc(-c3ccc(C4(CO)CC4)cc3)ncn2)c(OC)c1 (stereo not shown) [Compound 338]
CNCCCNc1ccc(-c2cc(NC[C@@H](C)c3ccccc3OC)ncn2)cn1 [Compound 201]
CNC(=O)c1ccnc2c([C@H](C)CNc3cc(-c4cnc(NC5CCN(CC(F)F)CC5)nc4)ncn3)ccc(F)c12 [Compound 1038]
CNC(=O)c1ccnc2c([C@H](C)CNc3cc(-c4cnc(OC)c(N)c4)ncn3)ccc(F)c12 [Compound 910]
CNC(=O)c1ccnc2c([C@H](C)CNc3cc(-c4cnc(OCC(F)(F)F)nc4)ncn3)cccc12 [Compound 769]
C[C@H](CNc1cc(-c2ccc3ncccc3c2)ncn1)c1ccnc2cccnc12 [Compound 501]
COc1cc(C(=O)NCC2CCCO2)ccc1C(C)CNc1cc(-c2ccc(C)nc2)ncn1 (stereo not shown) [Compound 162]
Cc1ccc(-c2cc(NCC(C)c3ccccc3OC(F)F)ncn2)cn1 (stereo not shown) [Compound 62]
CNC(=O)c1ccc([C@H](C)CNc2cc(-c3ccc4scnc4c3)ncn2)c(OC)c1 [Compound 316]
Cc1ccc(-c2cc(NCC(C)c3ccnc4ccoc34)ncn2)cn1 (stereo not shown) [Compound 404]
COc1ccccc1CCNc1cc(-c2ccc(N3CCN(C)CC3)nc2)ncn1 [Compound 2]
COc1cc(C(=O)NC2CCCC2)ccc1C(C)CNc1cc(-c2ccc(C)nc2)ncn1 (stereo not shown) [Compound 159]
CNC(=O)c1ccnc2c([C@H](C)CNc3cc(-c4cnc(OC5COC5)nc4)ncn3)cccc12 [Compound 666]
C[C@H](CNc1cc(-c2cc(C(F)(F)F)c3ncccc3c2)ncn1)c1ccnc2c1OCCO2 [Compound 557]
CNC(=O)c1c(F)cnc2c([C@H](C)CNc3cc(-c4cccs4)ncn3)cccc12 [Compound 689]
Cc1ccc(-c2cc(NCC(C)c3cccc4scnc34)ncn2)cn1 (stereo not shown) [Compound 333]
Cc1ccc(-c2cc(NCC(C)c3ccccc3OCCn3cccn3)ncn2)cn1 (stereo not shown) [Compound 191]
CNC(=O)c1ccnc2c([C@H](C)CNc3cc(-c4cnc(OC5CCN(C(=O)OC(C)(C)C)C5)nc4)ncn3)cccc12 (stereo partly shown) [Compound 746]
COc1ccccc1[C@H](C)CNc1cc(-c2ccc(N3CCCC3)nc2)ncn1 [Compound 84]
COc1ccnc2c(C(C)CNc3cc(-c4ccc(C)nc4)ncn3)cccc12 (stereo not shown) [Compound 474]
CNC(=O)c1ccnc2c([C@H](C)CNc3cc(-c4ccnc(N)c4)ncn3)cccc12 [Compound 876]
COc1cc(C(N)=O)ccc1C(C)CNc1cc(-c2ccc(C)nc2)ncn1 (stereo not shown) [Compound 122]
COc1ccccc1[C@H](C)CNc1cc(-c2ccc3ncccc3c2)ncn1 [Compound 80]
Cc1ccc(-c2cc(NC[C@@H](C)c3ccnc4c3OCCO4)ncn2)cn1 (single isomer, unassigned) [Compound 443]
Cc1ccc(-c2cc(NCC(C)c3cccc4cncnc34)ncn2)cn1 (stereo not shown) [Compound 468]
COc1cc(C#CC(C)O)ccc1C(C)CNc1cc(-c2ccc(C)nc2)ncn1 (stereo not shown) [Compound 427]
CNC(=O)c1ccnc2c([C@H](C)CNc3cc(-c4ccc(-c5nnnn5C)nc4)ncn3)cccc12 [Compound 958]
COc1cc(-c2cn[nH]c2)ccc1C(C)CNc1cc(-c2ccc(C)nc2)ncn1 (stereo not shown) [Compound 425]
Cc1ncc(-c2cc(NC[C@@H](C)c3cccc4c(C(F)F)ccnc34)ncn2)cn1 [Compound 669]
Cc1ccc(-c2cc(NCC(C)c3ccnc4cccnc34)ncn2)cn1 (stereo not shown) [Compound 331]
CNC(=O)c1cc(C(F)(F)F)nc2c([C@H](C)CNc3cc(-c4ccc(C)nc4)ncn3)cccc12 [Compound 985]
CNC(=O)c1ccnc2c([C@H](C)CNc3cc(-c4ccc(N5CCN6C(=O)OCC6C5)nc4)ncn3)cccc12 (single isomer, unassigned) [Compound 731]
CNC(=O)c1c(F)cnc2c([C@H](C)CNc3cc(-c4ccc(F)nc4)ncn3)cccc12 [Compound 899]
CNC(=O)c1ccc(C(C)CNc2cc(-c3ccc(OC)nc3)ncn2)c(OC)c1 (stereo not shown) [Compound 320]
COc1ccccc1CCNc1cc(-c2ccc(C(=O)NCCC#N)cc2)ncn1 [Compound 7]
COc1ccccc1[C@H](C)CNc1cc(-c2ccc(NC(C)CO)nc2)ncn1 (single isomer, unassigned) [Compound 126]
CCNc1ccc(-c2cc(NC[C@@H](C)c3cc(C)nc4c3OCC4)ncn2)cn1 [Compound 575]
CNC(=O)c1ccnc2c([C@H](C)CNc3cc(-c4cnc(C5CCOCC5)nc4)ncn3)ccc(F)c12 [Compound 832]
Cc1ccc(-c2cc(NCCc3cccc4c3OCC4)ncn2)cn1 [Compound 60]
Cc1ccc(-c2cc(NC[C@@H](C)c3cccc4c(-c5cc[nH]n5)ccnc34)ncn2)cn1 [Compound 693]
CNC(=O)c1c(F)cnc2c([C@H](C)CNc3cc(-c4cn[nH]c4)ncn3)cccc12 [Compound 785]
CNC(=O)c1ccnc2c([C@H](C)CNc3cc(-c4ccc(C)nc4)ncn3)ccc(OC)c12 [Compound 509]
CNC(=O)c1ccnc2c([C@H](C)CNc3cc(-c4ccc(CC5CCN(CC(F)(F)F)CC5)nc4)ncn3)ccc(F)c12 [Compound 1022]
CNC(=O)c1ccc(C(C)CNc2cc(-c3cn(C4COC4)c4ncc(F)cc34)ncn2)c(OC)c1 (stereo not shown) [Compound 449]
CCC(CNc1cc(-c2ccc(C)nc2)ncn1)c1ccccc1OC (stereo not shown) [Compound 69]
COc1ccccc1CCNc1cc(-c2ccnc(F)c2)ncn1 [Compound 9]
CNC(=O)c1ccnc2c([C@H](C)CNc3cc(-c4ccc(C(C)(C)O)nc4)ncn3)ccc(F)c12 [Compound 865]
COc1ccccc1[C@H](C)CNc1cc(-c2ccnc(NCCO)c2)ncn1 [Compound 119]
CNC(=O)c1ccnc2c([C@H](C)CNc3cc(-c4cnc(NC)nc4)ncn3)cccc12 [Compound 579]
COc1ccccc1CCNc1cc(-c2ccc(C(=O)NCC(F)(F)F)s2)ncn1 [Compound 54]
[2H]C([2H])([2H])NC(=O)c1ccnc2c([C@H](C)CNc3cc(-c4cnc(C)nc4)ncn3)cccc12 [Compound 654]
CNC(=O)c1ccc([C@H](C)CNc2cc(-c3ccc(NC4CC4)nc3)ncn2)c(OC)c1 [Compound 388]
Cc1ccc(-c2cc(NCC(C)c3cccc4c3ncn4C)ncn2)cn1 (stereo not shown) [Compound 288]
CCOc1cc(-c2cc(NC[C@@H](C)c3ccc(F)c4c(C(=O)NC)ccnc34)ncn2)cnc1OCC [Compound 905]
CNC(=O)c1ccnc2c([C@H](C)CNc3cc(-c4cncc(N5CCOCC5)c4)ncn3)ccc(F)c12 [Compound 915]
C[C@H](CNc1cc(-c2cnc3c(cnn3C)c2)ncn1)c1ccnc2c1OCC2 [Compound 438]

Same assay, conditions: 100 μM ATP; competitive tight-binding fit; listed as compound 661

pKi, ≥ 6.52:
CNC(=O)c1ccnc2c([C@H](C)CNc3cc(-c4cnn(C)c4)ncn3)cccc12 [Compound 661]
